Source: the supplement of paper PMC7580552
Counter-ions that a name gives are not always drawn. The list shows a part of the results. Baselines shift from plate to plate; read single values as rough.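 A K-12 lab model strain is cultured statically in 96-well plates; biofilm is measured as the absorbance of crystal violet stain retained in the wells. Drugs counted as candidate specific biofilm blockers if they strongly reduced staining while slowing planktonic growth by under 70%.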

What follows are compounds tested on Escherichia coli W3110 (assay: biofilm formation (crystal violet staining) relative to untreated control; higher = more biofilm). Settings: 10 µM; 20-24 h; 30 °C; TB.

| SMILES | biofilm formation |
| --- | --- |
| NC(CO)C(=O)NNCc1ccc(O)c(O)c1O (stereo unspecified) [Benserazide hydrochloride] | 46% |
| NCCC[C@H](N)CC(=O)N[C@H]1CNC(=O)[C@H]([C@H]2C[C@H](O)NC(N)=N2)NC(=O)/C(=C/NC(N)=O)NC(=O)[C@H](CO)NC(=O)[C@H](CO)NC1=O [Viomycin sulfate] | 89% |
| CN1CCC(OC(c2ccccc2)c2ccccc2)CC1 [Diphenylpyraline hydrochloride] | 68% |
| O=C(Oc1cccc2cccnc12)c1ccccc1 [Benzoxiquine] | 73% |
| Clc1ccc(Nc2nnc(Cc3ccncc3)c3ccccc23)cc1 [Vatalanib] | 102% |
| O=C(O)CCNC(=O)c1ccc(/N=N/c2ccc(O)c(C(=O)O)c2)cc1 [Balsalazide Sodium] | 87% |
| Cc1cccc(Nc2ccccc2C(=O)O)c1C [Mefenamic acid] | 94% |
| CCC(C)n1ncn(-c2ccc(N3CCN(c4ccc(OCC5COC(Cn6cncn6)(c6ccc(Cl)cc6Cl)O5)cc4)CC3)cc2)c1=O (stereo unspecified) [Itraconazole] | 96% |
| C[n+]1ccccc1/C=N/O [Pralidoxime chloride] | 62% |
| O=C1OC(CN2CCOCC2)CN1/N=C/c1ccc([N+](=O)[O-])o1 (stereo unspecified) [Furaltadone hydrochloride] | 63% |
| CNCCCN1c2ccccc2CCc2ccccc21 [Desipramine hydrochloride] | 49% |
| O=C1CCC(N2C(=O)c3ccccc3C2=O)C(=O)N1 (stereo unspecified) [Thalidomide] | 69% |
| O=C1NCCN1CCN1CCC(c2cn(-c3ccc(F)cc3)c3ccc(Cl)cc23)CC1 [Sertindole] | 92% |
| CCN(CC)CCNC(=O)COc1ccc(OC)cc1 [Mefexamide hydrochloride] | 75% |
| Cc1nc2n(c(=O)c1CCN1CCC(c3noc4cc(F)ccc34)CC1)CCCC2O (stereo unspecified) [Paliperidone] | 53% |
| Clc1ccc(C(Cn2ccnc2)OCc2csc3c(Cl)cccc23)c(Cl)c1 (stereo unspecified) [Sertaconazole nitrate] | 35% |
| CC(=O)OCC1=C(C(=O)O)N2C(=O)[C@@H](NC(=O)Cc3cccs3)[C@H]2SC1 [Cephalothin sodium salt] | 59% |
| CC1(C)S[C@@H]2[C@H](NC(=O)Cc3ccccc3)C(=O)N2[C@H]1C(=O)O [Benzathine benzylpenicillin] | 71% |
| CC1(C)S[C@@H]2[C@H](NC(=O)Cc3ccccc3)C(=O)N2[C@H]1C(=O)O [Benzylpenicillin sodium] | 52% |
| CCCCc1nc(Cl)c(CO)n1Cc1ccc(-c2ccccc2-c2nnn[nH]2)cc1 [Losartan] | 79% |
| CCC(=O)OCC(=O)[C@@]1(OC(=O)CC)[C@@H](C)C[C@H]2[C@@H]3CCC4=CC(=O)C=C[C@]4(C)[C@@]3(Cl)[C@@H](O)C[C@@]21C [Beclomethasone dipropionate] | 65% |
| CCN(CC)Cc1cc(Nc2ccnc3cc(Cl)ccc23)ccc1O [Amodiaquin dihydrochloride dihydrate] | 66% |
| COc1ccccc1N1CCN(CCCNc2cc(=O)n(C)c(=O)n2C)CC1 [Urapidil hydrochloride] | 47% |

| SMILES | biofilm formation |
| --- | --- |
| COc1nc(N)nc2c1ncn2[C@@H]1O[C@H](CO)[C@@H](O)[C@@H]1O [Nelarabine] | 67% |
| Cn1c(=O)c2c(ncn2CCO)n(C)c1=O [Etofylline] | 67% |
| CC(C)NCC(O)c1cc(O)cc(O)c1 (stereo unspecified) [Metaproterenol sulfate, orciprenaline sulfate] | 75% |
| O=C(O)CN(CCN(CC(=O)O)CC(=O)O)CCN(CC(=O)O)CC(=O)O [Pentetic acid] | 66% |
| C#CCN(C)CCCOc1ccc(Cl)cc1Cl [Clorgyline hydrochloride] | 62% |
| Cc1cnc(C(=O)NCCc2ccc(S(=O)(=O)NC(=O)NC3CCCCC3)cc2)cn1 [Glipizide] | 84% |
| O=C1[C@H](CC[C@H](O)c2ccc(F)cc2)[C@@H](c2ccc(O)cc2)N1c1ccc(F)cc1 [Ezetimibe] | 79% |
| CCC1NC(=O)c2cc(S(N)(=O)=O)c(Cl)cc2N1 (stereo unspecified) [Quinethazone] | 82% |
| CCN(CC)CCOc1ccc(C(=C(Cl)c2ccccc2)c2ccccc2)cc1 [Clomiphene citrate (Z,E)] | 64% |
| CN(C)[C@@H]1C(O)=C(C(=O)NCNCCCC[C@H](N)C(=O)O)C(=O)[C@@]2(O)C(O)=C3C(=O)c4c(O)cccc4[C@@](C)(O)[C@H]3C[C@@H]12 [Lymecycline] | 76% |
| CCCCNc1ccc(C(=O)OCCN(C)C)cc1 [Tetracaine hydrochloride] | 88% |
| CCCCCOC(=O)Nc1nc(=O)n([C@@H]2O[C@H](C)[C@@H](O)[C@H]2O)cc1F [Capecitabine] | 75% |
| CN1CCOC(c2ccccc2)c2ccccc2C1 (stereo unspecified) [Nefopam hydrochloride] | 67% |
| CN1CCC(=C2c3ccccc3CCc3sccc32)CC1 [Pizotifen malate] | 67% |
| O=C1C(O)=C([C@H]2CC[C@H](c3ccc(Cl)cc3)CC2)C(=O)c2ccccc21 [Atovaquone] | 65% |
| CC(C)NCC(O)c1ccc(O)c(O)c1 (single isomer, unassigned; (-)) [(-)-Isoproterenol hydrochloride] | 67% |
| Cc1ccccc1C(OCCN(C)C)c1ccccc1 (stereo unspecified) [Orphenadrine hydrochloride] | 93% |
| CN(C)CCOC(c1ccc(Cl)cc1)c1ccccn1 (stereo unspecified) [Carbinoxamine maleate salt] | 73% |
| O=C1CCc2ccc(OCCCCN3CCN(c4cccc(Cl)c4Cl)CC3)cc2N1 [Aripiprazole] | 78% |
| NC(=O)NC1NC(=O)NC1=O (stereo unspecified) [Allantoin] | 84% |
| COC(=O)C1=C(C)NC(C)=C(C(=O)OCC(C)C)C1c1ccccc1[N+](=O)[O-] (stereo unspecified) [Nisoldipine] | 51% |
| COC(=O)C1=C(C)NC(C)=C(C(=O)OCCN(C)Cc2ccccc2)C1c1cccc([N+](=O)[O-])c1 (stereo unspecified) [Nicardipine hydrochloride] | 69% |
| CN1CCN(c2c(F)cc3c(=O)c(C(=O)O)cn4c3c2SCC4)CC1 [Rufloxacin] | 6% |

For reference, part of the list above:

| SMILES | biofilm formation |
| --- | --- |
| NC(=O)NC1NC(=O)NC1=O (stereo unspecified) [Allantoin] | 84% |
| COC(=O)C1=C(C)NC(C)=C(C(=O)OCC(C)C)C1c1ccccc1[N+](=O)[O-] (stereo unspecified) [Nisoldipine] | 51% |
| COC(=O)C1=C(C)NC(C)=C(C(=O)OCCN(C)Cc2ccccc2)C1c1cccc([N+](=O)[O-])c1 (stereo unspecified) [Nicardipine hydrochloride] | 69% |
| CN1CCN(c2c(F)cc3c(=O)c(C(=O)O)cn4c3c2SCC4)CC1 [Rufloxacin] | 6% |
